No constants are given. Whether binding was seen depends on the method and setting. In cells and extracts the contact can be indirect. Some entries that bind do so weakly or less than the wild type.

By UniProt entry, the sequences of proteins in these tests, tags left out. Where a name states a change or a piece, a line headed by the entry shows the natural chain unless it says otherwise. Chains listed by the source or under a name are the forms on record and can include a tag or linker. Residues count along the entry.
UniProt P63165, residues 1-97: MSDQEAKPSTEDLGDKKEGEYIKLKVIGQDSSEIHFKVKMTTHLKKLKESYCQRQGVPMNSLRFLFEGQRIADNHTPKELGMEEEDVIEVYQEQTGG
UniProt Q14676: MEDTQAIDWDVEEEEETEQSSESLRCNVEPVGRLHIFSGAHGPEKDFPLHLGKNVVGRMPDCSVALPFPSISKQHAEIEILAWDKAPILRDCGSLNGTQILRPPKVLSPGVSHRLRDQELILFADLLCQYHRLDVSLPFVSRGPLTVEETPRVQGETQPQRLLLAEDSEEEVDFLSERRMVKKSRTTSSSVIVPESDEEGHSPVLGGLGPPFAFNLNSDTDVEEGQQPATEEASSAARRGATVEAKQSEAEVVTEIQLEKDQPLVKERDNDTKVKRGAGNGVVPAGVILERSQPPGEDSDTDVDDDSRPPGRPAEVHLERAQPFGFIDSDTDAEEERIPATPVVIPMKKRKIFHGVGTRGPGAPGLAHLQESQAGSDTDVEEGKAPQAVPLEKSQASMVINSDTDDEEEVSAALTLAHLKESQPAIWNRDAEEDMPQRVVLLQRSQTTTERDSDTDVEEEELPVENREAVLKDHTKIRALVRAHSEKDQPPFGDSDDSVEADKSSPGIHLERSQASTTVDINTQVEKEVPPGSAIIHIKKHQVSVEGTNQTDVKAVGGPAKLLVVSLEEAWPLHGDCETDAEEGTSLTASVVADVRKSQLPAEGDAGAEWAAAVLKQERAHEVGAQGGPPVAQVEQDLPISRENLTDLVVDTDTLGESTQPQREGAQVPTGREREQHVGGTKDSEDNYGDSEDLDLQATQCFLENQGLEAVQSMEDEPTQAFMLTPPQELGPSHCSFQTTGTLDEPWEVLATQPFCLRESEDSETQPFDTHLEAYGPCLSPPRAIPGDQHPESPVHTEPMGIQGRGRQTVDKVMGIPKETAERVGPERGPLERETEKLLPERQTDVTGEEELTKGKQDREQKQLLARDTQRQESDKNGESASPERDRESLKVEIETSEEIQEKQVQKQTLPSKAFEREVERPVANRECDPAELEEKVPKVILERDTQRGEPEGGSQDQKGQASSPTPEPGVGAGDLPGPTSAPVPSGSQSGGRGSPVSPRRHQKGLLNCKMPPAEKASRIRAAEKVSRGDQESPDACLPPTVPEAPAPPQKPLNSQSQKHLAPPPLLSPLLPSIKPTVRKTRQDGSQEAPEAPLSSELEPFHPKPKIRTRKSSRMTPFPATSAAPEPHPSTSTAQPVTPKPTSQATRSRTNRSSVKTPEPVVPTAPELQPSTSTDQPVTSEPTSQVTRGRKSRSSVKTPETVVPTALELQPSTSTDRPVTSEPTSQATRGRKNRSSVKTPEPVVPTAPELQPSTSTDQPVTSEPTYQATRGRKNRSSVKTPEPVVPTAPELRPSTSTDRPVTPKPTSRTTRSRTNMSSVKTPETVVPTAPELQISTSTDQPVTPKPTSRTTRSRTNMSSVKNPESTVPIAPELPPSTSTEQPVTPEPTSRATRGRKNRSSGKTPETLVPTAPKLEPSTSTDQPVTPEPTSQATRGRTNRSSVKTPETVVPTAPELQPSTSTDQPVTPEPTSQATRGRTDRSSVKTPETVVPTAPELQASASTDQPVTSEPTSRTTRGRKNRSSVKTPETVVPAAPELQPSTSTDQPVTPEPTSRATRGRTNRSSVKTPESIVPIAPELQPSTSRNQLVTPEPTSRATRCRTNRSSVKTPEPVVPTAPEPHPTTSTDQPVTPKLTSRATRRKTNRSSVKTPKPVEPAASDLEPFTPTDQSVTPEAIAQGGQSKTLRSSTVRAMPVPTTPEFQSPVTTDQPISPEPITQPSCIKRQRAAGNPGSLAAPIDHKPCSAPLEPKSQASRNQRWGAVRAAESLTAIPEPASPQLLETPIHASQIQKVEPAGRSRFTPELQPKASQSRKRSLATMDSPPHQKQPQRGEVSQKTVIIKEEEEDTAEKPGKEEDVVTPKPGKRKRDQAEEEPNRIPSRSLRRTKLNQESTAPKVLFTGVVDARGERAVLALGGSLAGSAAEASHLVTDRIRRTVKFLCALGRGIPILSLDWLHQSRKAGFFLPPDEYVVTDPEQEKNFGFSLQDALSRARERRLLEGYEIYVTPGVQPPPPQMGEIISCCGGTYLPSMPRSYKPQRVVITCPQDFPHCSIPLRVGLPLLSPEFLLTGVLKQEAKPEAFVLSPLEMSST
UniProt P54252: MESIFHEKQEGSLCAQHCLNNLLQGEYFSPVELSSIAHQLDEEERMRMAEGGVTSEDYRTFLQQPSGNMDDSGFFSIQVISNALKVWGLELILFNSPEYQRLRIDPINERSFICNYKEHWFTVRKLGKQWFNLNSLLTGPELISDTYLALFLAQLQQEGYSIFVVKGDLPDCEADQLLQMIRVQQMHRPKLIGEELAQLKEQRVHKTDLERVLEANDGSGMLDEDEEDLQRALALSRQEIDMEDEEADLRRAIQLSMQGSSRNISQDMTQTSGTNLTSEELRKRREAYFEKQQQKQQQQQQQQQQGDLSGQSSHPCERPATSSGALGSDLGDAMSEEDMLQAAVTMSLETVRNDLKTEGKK
putative SIM mutated 10xHis‐ataxin‐3‐HA (P54252, form named): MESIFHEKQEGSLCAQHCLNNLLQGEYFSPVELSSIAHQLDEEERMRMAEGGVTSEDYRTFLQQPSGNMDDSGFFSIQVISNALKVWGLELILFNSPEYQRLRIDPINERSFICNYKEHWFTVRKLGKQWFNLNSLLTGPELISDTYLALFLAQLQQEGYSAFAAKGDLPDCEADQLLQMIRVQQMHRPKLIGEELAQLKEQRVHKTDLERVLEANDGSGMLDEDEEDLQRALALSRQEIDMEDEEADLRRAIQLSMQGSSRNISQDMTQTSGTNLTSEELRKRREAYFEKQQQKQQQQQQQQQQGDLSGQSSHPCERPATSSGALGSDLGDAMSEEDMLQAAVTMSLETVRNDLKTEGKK

Binding data for 3 substances are collected here from publication PMC5391139.

Assay [1] addresses recombinant SUMO1 immobilized on agarose beads (UniProt P63165). Briefly: pull-down; recombinant SUMO1 or SUMO2 immobilized on agarose beads incubated with cleared cell lysates (cells with or without 10 ug/ml bleomycin, 1 h) for 2 h at 4°C; EBC buffer (50 mM Tris pH 7.5, 150 mM NaCl, 1 mM EDTA, 1 mM DTT) with 0.5% NP-40 and benzonase; immunoblot; only the target purified. (In general: A western blot detects proteins with antibodies after separation by electrophoresis.)

Assay [2] addresses endogenous MDC1 (human (endogenous in U2OS)) (UniProt Q14676). Briefly: co-IP; endogenous MDC1 immunoprecipitated from U2OS nuclear lysates, with or without 10 ug/ml bleomycin; Western blot; also in cells depleted of Ubc9 or PIAS4 (Appendix Fig S4A).

“GFP‐tagged N‐terminal fragment of ataxin‐3 (Josephin domain) (from UniProt P54252 1-180) (domain or fragment)”: the binding result in assay [1] is given as “binds”. For the substance “endogenous ataxin‐3 (from UniProt P54252 1-361) (enzyme)”, the binding result in assay [1] and in assay [2] was “binds” throughout. For “putative SIM mutated 10xHis‐ataxin‐3‐HA (from UniProt P54252 1-361) (enzyme)”, the binding result in assay [1] is reported as “no binding”.
